One substance from paper PMC4613824 can be followed below.

Sequences of proteins named here, by UniProt entry; tags and fusion partners are left off. A change or cut given only in a name is not applied to a line headed by its entry.
UniProt Q6GQX2: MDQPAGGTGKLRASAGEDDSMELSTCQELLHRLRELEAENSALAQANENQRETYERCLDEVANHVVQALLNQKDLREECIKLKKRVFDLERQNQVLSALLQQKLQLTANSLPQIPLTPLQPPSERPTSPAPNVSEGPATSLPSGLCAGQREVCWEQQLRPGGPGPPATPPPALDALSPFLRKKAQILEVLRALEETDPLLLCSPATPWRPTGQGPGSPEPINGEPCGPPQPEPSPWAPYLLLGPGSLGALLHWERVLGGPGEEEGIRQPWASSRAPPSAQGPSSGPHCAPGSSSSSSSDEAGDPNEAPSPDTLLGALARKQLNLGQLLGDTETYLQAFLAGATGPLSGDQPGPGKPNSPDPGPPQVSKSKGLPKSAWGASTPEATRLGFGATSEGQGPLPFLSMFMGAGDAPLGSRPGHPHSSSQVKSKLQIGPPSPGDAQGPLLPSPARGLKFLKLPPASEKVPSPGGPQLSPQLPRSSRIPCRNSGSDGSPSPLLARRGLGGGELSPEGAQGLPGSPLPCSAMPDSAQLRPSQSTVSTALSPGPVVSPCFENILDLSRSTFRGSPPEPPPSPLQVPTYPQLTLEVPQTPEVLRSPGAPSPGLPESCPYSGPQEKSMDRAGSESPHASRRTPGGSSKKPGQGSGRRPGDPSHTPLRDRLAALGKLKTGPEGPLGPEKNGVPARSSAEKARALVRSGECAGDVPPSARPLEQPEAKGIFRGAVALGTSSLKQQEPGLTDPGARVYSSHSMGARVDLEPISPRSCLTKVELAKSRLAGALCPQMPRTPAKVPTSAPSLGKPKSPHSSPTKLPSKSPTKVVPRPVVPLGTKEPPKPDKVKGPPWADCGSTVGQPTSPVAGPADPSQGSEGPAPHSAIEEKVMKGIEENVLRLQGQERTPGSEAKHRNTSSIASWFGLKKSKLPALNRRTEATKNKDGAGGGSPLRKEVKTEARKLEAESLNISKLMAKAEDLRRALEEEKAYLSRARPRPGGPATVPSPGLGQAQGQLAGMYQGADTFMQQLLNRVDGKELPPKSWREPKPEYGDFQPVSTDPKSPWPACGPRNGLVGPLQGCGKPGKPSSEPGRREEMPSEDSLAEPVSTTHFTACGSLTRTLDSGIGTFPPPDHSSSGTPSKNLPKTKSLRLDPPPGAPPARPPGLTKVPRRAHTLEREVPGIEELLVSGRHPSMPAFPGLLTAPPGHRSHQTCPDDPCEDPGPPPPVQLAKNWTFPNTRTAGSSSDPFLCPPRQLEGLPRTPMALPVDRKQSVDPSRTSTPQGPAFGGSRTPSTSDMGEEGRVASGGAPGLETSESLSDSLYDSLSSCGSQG

Results are given in words; binding and its absence hold for the method and conditions named. Binding calls can cover weak binding; strength is not graded here.

The experiment has as its target T1, CM1 domain of human CDK5RAP2 (58-196) (human) (UniProt Q96SN8).
T1 sequence: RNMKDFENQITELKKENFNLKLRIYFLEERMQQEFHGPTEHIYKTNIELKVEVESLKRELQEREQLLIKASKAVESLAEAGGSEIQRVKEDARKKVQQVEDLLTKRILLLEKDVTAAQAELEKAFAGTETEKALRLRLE
The experiment can be described thus: two-hybrid; CM1 (58-196) of CDK5RAP2 fused to the GAL4 DNA-binding domain (pGBKT7) as bait; mouse embryo cDNA two-hybrid library as prey.

Regarding “amino-terminal region of NCKAP5L (two-hybrid prey) (from UniProt Q6GQX2) (domain or fragment)”, the binding result was “binds”.
